Hit rate of the full screen: of about 360,000 compounds, about 780 (0.22%) were called active. The inconclusive results got no clear call from the source; some entries with a clear call stand among them for comparison. Cut-off read from the data, not from the text of the source: active = inhibition above about 35% (passing the limit was not always enough); inconclusive = no clear call, values can overlap the other calls.
Test system: Botulinum neurotoxin type F light chain protease (Clostridium botulinum)
Experiment: BoNT/F light chain protease inhibitors, primary screen, biochemical, flow cytometry, MLPCN library (AID 588497); note: plate controls were buffer without enzyme for full effect and enzyme alone for no effect
Settings: Multiplex microsphere protease cleavage assay, at 10 µM, active compounds read high

Structure (SMILES)	inhibition
O=C(O)CC(CC(=O)Nc1ccc(F)c(Cl)c1)c1ccc(Cl)cc1Cl (configuration not stated)	inconclusive: -49.7%
CCOC(=O)c1nn(-c2ccc(C)c(Cl)c2)c(=O)c(C#N)c1C	inconclusive: -4.8%
FC(F)(F)c1ccc(-c2nnc(-c3ccccn3)c(-c3ccccn3)n2)nc1	inconclusive: -15.9%
CCCc1ccc(S(=O)(=O)Nc2ccc(C)c(NS(C)(=O)=O)c2)cc1	inconclusive: -38%
C/C(=N\N(C)c1ccccc1)c1c(O)[nH]c(=O)[nH]c1=O	inconclusive: -87.8%
CCOc1ccc2nc(N3CCOCC3)nc(C)c2c1	inactive: 1.1%
CCOC(=O)C(NC(C)=O)(NC(C)C)C(F)(F)F (configuration not stated)	inconclusive: -8.6%
COc1ccc(-c2csc(C(O)c3ccc(F)c(OC)c3)n2)cc1 (configuration not stated)	inactive: -8.3%
CN(C(=O)C(Cl)Cl)C1CC2C=CC1C2 (configuration not stated)	inconclusive: 5.7%
O=C(COC(=O)c1ccccc1-n1cnnn1)c1ccc(F)cc1	inconclusive: 2.8%
CC(c1ccco1)N(Cc1ccco1)C(=O)Nc1ccccc1 (configuration not stated)	inactive: -2.4%
COc1cc(/C=N\NC(=O)c2sc(N)nc2C)cc(OC)c1OC	inconclusive: 33.8%
CCOc1ccccc1/C=N\Nc1cnn(Cc2ccccc2)c(=O)c1Cl	inactive: -2%
CN(C)CC#Cc1cccc(-c2nc(C(=O)O)cc3c2[C@@H](CCO)N(S(=O)C(C)(C)C)C3)c1 (some centres not stated)	inactive: -3.2%
COc1cccc(CNc2nc3cc(-c4cccc(C(=O)NCCO)c4)sc3c(=O)n2C)c1	inactive: -2.9%
Cc1ccc[n+](CC(=O)Nc2ccc(C)c(C)c2)c1	inconclusive: -5.4%
CS(=O)(=O)N1CCN(c2ccc(NC(=O)c3cc4ccccc4o3)cc2)CC1	inconclusive: 7.4%
O=C(Nc1ccc(S(=O)(=O)N2CCOCC2)cc1)c1cccc([N+](=O)[O-])c1	inconclusive: -0.7%
O=C(CNC(=O)c1ccc(Br)cc1)c1ccc(Br)cc1	inconclusive: -10.6%

Structure (SMILES)	inhibition
Cc1c(C(=O)/C=C/N(C)C)nnn1-c1ccc(Cl)cc1C#N	inconclusive: 7%
COc1ccc(CCNC(=O)NC(C(F)(F)F)C(F)(F)F)cc1OC	inconclusive: 11.8%
O=[N+]([O-])c1ccc(-c2cn3c(n2)CCC3)cc1	active: 36.8%
Cc1cccc2c3c([nH]c12)CCNC3	inconclusive: -20.4%
CCOc1ccc(CSC(=N)N)cc1Cl	inconclusive: 22.4%
COc1ccc(OC)c2nc(-c3ccc4c(c3)OCO4)ccc12	inconclusive: 9.1%
CCCCC(c1nc2ccccc2[nH]1)n1c(=O)c(-c2ccccc2)nc2cc(C)c(C)cc21 (configuration not stated)	inactive: 5.2%
Cc1ccc(-n2c(O)c(C=NC3CCS(=O)(=O)C3)c3ccccc3c2=O)c(C)c1 (configuration not stated)	inconclusive: 51.5%
CC(=O)Nc1ccc(-c2noc(-c3csc([C@@H]4C[C@H](O)[C@@H](CO)O4)n3)n2)cc1	inactive: -7.1%
CCOC(=O)c1c(NC(=O)CN(C)C)sc(C(=O)N(CC)CC)c1C	inconclusive: 24.2%
Cc1oc2c(Cl)c(Cl)c(O)c(CN(C)C)c2c1C(=O)c1ccc(Cl)cc1	inconclusive: -15.2%
CC1(C(=O)N2CCN(Cc3ccccc3Cl)CC2)CC1(Cl)Cl (configuration not stated)	inconclusive: -9.9%
CCOc1ccc(NC(=O)Nc2ccc(Br)cn2)cc1	active: 48.1%
CCC(=O)c1ccc(Oc2nc3c(c(=O)n(C)c(=O)n3C)n2CC)cc1	inconclusive: -28.6%
CCCOc1ccc(/C=N/NC(=O)C2CCCN2S(=O)(=O)c2ccc(Cl)cc2)cc1 (configuration not stated)	inconclusive: -10%
CCOc1ccc(NC(=O)CN(C)C(=O)c2ccc(N3CCCC3)c([N+](=O)[O-])c2)cc1OCC	inconclusive: -1.2%
CCOC(=O)Nc1nc(-c2ccc(F)cc2F)cs1	inactive: -0.5%
COc1cc(/C=C2\SC(=Nc3ccccc3OC)NC2=O)ccc1O	inactive: -14.5%
CNS(=O)(=O)c1cc(Cl)ccc1Sc1ccccc1C(=O)O	inconclusive: -2.7%

Compounds shown so far containing an NH in an aromatic ring, in the order listed:
Structure (SMILES)	inhibition
C/C(=N\N(C)c1ccccc1)c1c(O)[nH]c(=O)[nH]c1=O	inconclusive: -87.8%
Cc1cccc2c3c([nH]c12)CCNC3	inconclusive: -20.4%
CCCCC(c1nc2ccccc2[nH]1)n1c(=O)c(-c2ccccc2)nc2cc(C)c(C)cc21 (configuration not stated)	inactive: 5.2%

Following part

Structure (SMILES)	inhibition
O=C(c1ccco1)N1CCN(S(=O)(=O)c2ccccc2)CC1	inactive: -19.2%
CCOc1ccc(N(C(C)C(=O)N2CCCC2)S(C)(=O)=O)cc1 (configuration not stated)	inconclusive: -12.4%
CCOC(=O)C(C)NC(=O)CCc1nnc2ccc(N3CCC(C)CC3)nn12 (configuration not stated)	active: 37.2%
CC(C)(Oc1ccc(Cl)cc1)C(=O)NCC1CCCO1 (configuration not stated)	inconclusive: -9.5%
O=C(O)CN1C(=O)/C(=C\c2ccccc2OCc2ccc(Cl)cc2Cl)SC1=S	inconclusive: -13.6%
CCOC(=O)N1CCN(C(=O)c2ccc(N3C(=O)CCC3=O)cc2)CC1	inconclusive: -6.6%
O=c1[nH]c(=S)[nH]c2sc3c(c12)CCCCCC3	inconclusive: 1.1%
C[C@@H]1CN([C@H](C)CO)C(=O)c2cc(NC(=O)Cc3cn(C)c4ccccc34)ccc2O[C@H]1CN(C)S(=O)(=O)c1ccc(F)cc1	inactive: 4.5%
COC(=O)C1C(=O)/C(=C(/C)N2CCCC2)C(=O)CC1(C)C (configuration not stated)	inactive: -1.3%
COC(C(=O)N/N=C(\C)c1ccc(C(C)(C)C)cc1)c1ccccc1 (configuration not stated)	inconclusive: -1.6%
O=C(Nc1ccc(Cl)c(NC(=O)c2cccs2)c1)c1ccco1	inconclusive: 3.3%
O=C(NCc1cccc(C(F)(F)F)c1)c1ccc2sc(C3=C[C@@H](O)[C@@H](O)[C@@H](CO)O3)nc2c1	inactive: -7.5%
COc1cccc(/C=N/Nc2cc(N3CCOCC3)ncn2)c1O	inconclusive: -46.5%
c1ccc(N=C(c2cccs2)N2CCOCC2)cc1	inactive: 2.1%
O=C(Nc1ccc(F)cc1)NC1CCN(Cc2c(F)cccc2Cl)CC1	inconclusive: -40.9%
O=c1ccc(Cl)nn1-c1ccccc1	inconclusive: -31.5%
O=C(Oc1c(CN2CCOCC2)cc(Cl)c2cccnc12)c1ccccc1Cl	inactive: -0.6%
O=C(Nc1cccc(S(=O)(=O)N2CCCC2)c1)c1cccc(S(=O)(=O)N2CCOCC2)c1	inactive: -1.6%
CC(NC(=O)c1cccc(Cn2cc([N+](=O)[O-])cn2)c1)c1ccc(C(C)(C)C)cc1 (configuration not stated)	inactive: -3.2%

— PubChem BioAssay AID588497 (NMMLSC, 2011)
